Results on two molecules are retold here after PMC5025801.

By UniProt entry, the sequences of proteins in these tests, tags left out. Residues count along the entry.
UniProt P07766, residues 23-207: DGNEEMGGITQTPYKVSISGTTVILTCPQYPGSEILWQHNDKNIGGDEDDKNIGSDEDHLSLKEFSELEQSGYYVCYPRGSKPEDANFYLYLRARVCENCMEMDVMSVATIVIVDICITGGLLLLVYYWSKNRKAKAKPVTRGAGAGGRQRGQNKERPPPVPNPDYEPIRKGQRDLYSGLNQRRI

Results are given in words; binding and its absence hold for the method and conditions named. In cells and extracts the contact can be indirect. Some entries that bind do so weakly or less than the wild type.

The target in this experiment is T1, Oxysterol-binding protein (OSBP)-related protein 4, long variant (ORP4L) (human (endogenous in Jurkat)) (UniProt Q969R2).
T1 sequence: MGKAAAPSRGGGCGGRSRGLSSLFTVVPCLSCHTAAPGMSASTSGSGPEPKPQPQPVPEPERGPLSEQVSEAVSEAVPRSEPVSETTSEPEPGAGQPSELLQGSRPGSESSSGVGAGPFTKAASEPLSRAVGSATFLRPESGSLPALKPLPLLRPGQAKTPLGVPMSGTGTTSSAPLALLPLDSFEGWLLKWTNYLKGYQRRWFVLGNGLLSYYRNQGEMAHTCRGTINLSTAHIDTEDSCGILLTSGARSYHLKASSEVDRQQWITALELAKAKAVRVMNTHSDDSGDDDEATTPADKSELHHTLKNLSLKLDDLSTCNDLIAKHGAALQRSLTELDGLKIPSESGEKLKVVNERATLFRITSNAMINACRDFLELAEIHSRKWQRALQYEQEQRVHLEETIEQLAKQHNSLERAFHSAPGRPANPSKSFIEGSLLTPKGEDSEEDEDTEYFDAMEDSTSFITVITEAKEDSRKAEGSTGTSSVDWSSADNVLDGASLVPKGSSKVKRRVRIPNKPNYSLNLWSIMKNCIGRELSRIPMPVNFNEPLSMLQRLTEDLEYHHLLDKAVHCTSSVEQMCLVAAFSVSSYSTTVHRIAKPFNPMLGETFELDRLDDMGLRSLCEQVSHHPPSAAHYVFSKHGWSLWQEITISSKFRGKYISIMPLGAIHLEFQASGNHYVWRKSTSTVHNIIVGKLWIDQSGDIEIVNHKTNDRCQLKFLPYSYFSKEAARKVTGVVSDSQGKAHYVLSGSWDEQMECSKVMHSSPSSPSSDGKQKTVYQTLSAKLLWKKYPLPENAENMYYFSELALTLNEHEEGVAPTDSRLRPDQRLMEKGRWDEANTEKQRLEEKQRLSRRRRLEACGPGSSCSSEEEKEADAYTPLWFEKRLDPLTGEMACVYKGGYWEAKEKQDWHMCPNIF
In words: co-IP; anti-ORP4L immunoprecipitates of Jurkat T-cell lysates, western blot for PLCβ3, Gαq/11 and CD3ɛ; cells without or with 10 μg/ml anti-CD3 for the indicated times. Background: In western blotting, separated proteins are transferred to a membrane and probed.

For CD3ɛ (from UniProt P07766 23-207), the binding result is given as “binds”.

B1: PLCβ3 (enzyme, UniProt Q01970 1-1234)
chain: MAGAQPGVHALQLEPPTVVETLRRGSKFIKWDEETSSRNLVTLRVDPNGFFLYWTGPNMEVDTLDISSIRDTRTGRYARLPKDPKIREVLGFGGPDARLEEKLMTVVSGPDPVNTVFLNFMAVQDDTAKVWSEELFKLAMNILAQNASRNTFLRKAYTKLKLQVNQDGRIPVKNILKMFSADKKRVETALESCGLKFNRSESIRPDEFSLEIFERFLNKLCLRPDIDKILLEIGAKGKPYLTLEQLMDFINQKQRDPRLNEVLYPPLRPSQARLLIEKYEPNQQFLERDQMSMEGFSRYLGGEENGILPLEALDLSTDMTQPLSAYFINSSHNTYLTAGQLAGTSSVEMYRQALLWGCRCVELDVWKGRPPEEEPFITHGFTMTTEVPLRDVLEAIAETAFKTSPYPVILSFENHVDSAKQQAKMAEYCRSIFGDALLIEPLDKYPLAPGVPLPSPQDLMGRILVKNKKRHRPSAGGPDSAGRKRPLEQSNSALSESSAATEPSSPQLGSPSSDSCPGLSNGEEVGLEKPSLEPQKSLGDEGLNRGPYVLGPADREDEEEDEEEEEQTDPKKPTTDEGTASSEVNATEEMSTLVNYIEPVKFKSFEAARKRNKCFEMSSFVETKAMEQLTKSPMEFVEYNKQQLSRIYPKGTRVDSSNYMPQLFWNVGCQLVALNFQTLDVAMQLNAGVFEYNGRSGYLLKPEFMRRPDKSFDPFTEVIVDGIVANALRVKVISGQFLSDRKVGIYVEVDMFGLPVDTRRKYRTRTSQGNSFNPVWDEEPFDFPKVVLPTLASLRIAAFEEGGKFVGHRILPVSAIRSGYHYVCLRNEANQPLCLPALLIYTEASDYIPDDHQDYAEALINPIKHVSLMDQRARQLAALIGESEAQAGQETCQDTQSQQLGSQPSSNPTPSPLDASPRRPPGPTTSPASTSLSSPGQRDDLIASILSEVAPTPLDELRGHKALVKLRSRQERDLRELRKKHQRKAVTLTRRLLDGLAQAQAEGRCRLRPGALGGAADVEDTKEGEDEAKRYQEFQNRQVQSLLELREAQVDAEAQRRLEHLRQALQRLREVVLDANTTQFKRLKEMNEREKKELQKILDRKRHNSISEAKMRDKHKKEAELTEINRRHITESVNSIRRLEEAQKQRHDRLVAGQQQVLQQLAEEEPKLLAQLAQECQEQRARLPQEIRRSLLGEMPEGLGDGPLVACASNGHAPGSSGHLSGADSESQEENTQL
For B1, the binding entry was “binds”.
